Experimental data: US20200405868A1, “GEL-FORMING POLYPEPTIDES” (priority 2018, published 2020)
“Also recorded” adds a separate entry of the source. For part of these data: Not every detail of the peptide structures is certain; ends, links or a residue may be inferred. Some entries repeat one wording, which the source may state once for all of them. For part of these data: For at least one compound, name, drawing or mass did not settle the structure. Some entries share one result that the patent states for a list of compounds. Where a SMILES comes first, the peptide text is derived from it. Bridges are numbered along the chain shown (N, C = ends). [ ]: non-standard residue; d: D form. The star is where a group is joined. dPhe(4-Cl) = N[C@H](Cc1ccc(Cl)cc1)C(=O)O; d2Nal = N[C@H](Cc1ccc2ccccc2c1)C(=O)O; Palmitoyl = CCCCCCCCCCCCCCCC(=O)*; dCit = NC(=O)NCCC[C@@H](N)C(=O)O; d3Pal = N[C@H](Cc1cccnc1)C(=O)O; AEEA = NCCOCCOCC(=O)O

By UniProt entry, the sequences of proteins in these tests, tags left out.
UniProt P32245, whole entry: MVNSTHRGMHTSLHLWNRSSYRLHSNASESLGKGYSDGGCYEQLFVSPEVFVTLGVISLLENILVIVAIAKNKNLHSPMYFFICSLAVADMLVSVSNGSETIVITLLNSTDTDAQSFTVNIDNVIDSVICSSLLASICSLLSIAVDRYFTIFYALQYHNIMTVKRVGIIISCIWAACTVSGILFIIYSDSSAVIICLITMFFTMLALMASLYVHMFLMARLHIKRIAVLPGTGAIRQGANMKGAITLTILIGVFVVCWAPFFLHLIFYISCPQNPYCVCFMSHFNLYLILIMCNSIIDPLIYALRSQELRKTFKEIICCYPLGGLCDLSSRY

Key:
[1] = target: melanocortin receptor 4 (MC4R) (Homo sapiens, UniProt P32245); test: MC4R cAMP assay (Discoverx), agonistic; assay type: cell-based
Method: (§1) The agonistic activities toward MC1R, MC4R, CRHR2, PTHR1, and OPRK1 were assyed with an MC1R cAMP assay, an MC4R cAMP assay, a CRHR2 cAMP assay, a PTHR1 cAMP assay and an OPRK1 cAMP assay from Discoverx Inc. (Fremont, Calif.), respectively. The antagonistic activities toward bradykinin receptor 2 (BDKRB2) and GnRH receptor (GnRHR or LHRHR) were assayed with a BDKRB2 arrestin assay and a GnRHR calcium flux assay from Discoverx, respectively.
(§2) For the analysis of Gs-coupled cAMP production, cAMP Hunter cell lines were expanded from freezer stocks, and cells were seeded in a total volume of 20 μL into white walled, 384-well microplates and incubated at 37 C for the appropriate time prior to testing. The cAMP modulation was determined using the DiscoverX HitHunter cAMP XS+ assay. For agonistic activity determination, cells were incubated with sample to induce response. Media was aspirated from cells and replaced with 15 μL 2:1 HBSS/10 mM Hepes: cAMP XS+ Ab reagent. […] The compound activity was analyzed using a CBIS data analysis suite (ChemInnovation, CA). For Gs-coupled agonistic assays, percentage activity is calculated using the following formula: % Activity=100%×(mean RLU of test sample−mean RLU of vehicle control)/(mean RLU of MAX control−mean RLU of vehicle control).

[2] = target: T1, CRH receptor 2 (CRHR2) (Homo sapiens, UniProt Q13324); test: CRHR2 cAMP assay (Discoverx), agonistic; assay type: cell-based
T1 sequence (Q13324 1-411): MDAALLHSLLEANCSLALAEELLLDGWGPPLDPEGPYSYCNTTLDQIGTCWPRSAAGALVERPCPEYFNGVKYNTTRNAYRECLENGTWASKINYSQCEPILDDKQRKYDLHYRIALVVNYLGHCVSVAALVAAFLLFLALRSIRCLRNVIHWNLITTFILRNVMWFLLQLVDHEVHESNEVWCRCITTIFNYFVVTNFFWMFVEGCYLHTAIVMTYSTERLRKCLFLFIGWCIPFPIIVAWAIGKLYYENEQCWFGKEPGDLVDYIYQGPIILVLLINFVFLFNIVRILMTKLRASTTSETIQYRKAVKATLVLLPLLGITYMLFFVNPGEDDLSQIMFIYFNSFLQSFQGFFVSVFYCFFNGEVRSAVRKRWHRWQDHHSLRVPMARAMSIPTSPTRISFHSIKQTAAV
Method: as §1, §2

[3] = target: T2, PTH receptor 1 (PTHR1) (Homo sapiens, UniProt Q03431); test: PTHR1 cAMP assay (Discoverx), agonistic; assay type: cell-based
T2 sequence (Q03431 27-593): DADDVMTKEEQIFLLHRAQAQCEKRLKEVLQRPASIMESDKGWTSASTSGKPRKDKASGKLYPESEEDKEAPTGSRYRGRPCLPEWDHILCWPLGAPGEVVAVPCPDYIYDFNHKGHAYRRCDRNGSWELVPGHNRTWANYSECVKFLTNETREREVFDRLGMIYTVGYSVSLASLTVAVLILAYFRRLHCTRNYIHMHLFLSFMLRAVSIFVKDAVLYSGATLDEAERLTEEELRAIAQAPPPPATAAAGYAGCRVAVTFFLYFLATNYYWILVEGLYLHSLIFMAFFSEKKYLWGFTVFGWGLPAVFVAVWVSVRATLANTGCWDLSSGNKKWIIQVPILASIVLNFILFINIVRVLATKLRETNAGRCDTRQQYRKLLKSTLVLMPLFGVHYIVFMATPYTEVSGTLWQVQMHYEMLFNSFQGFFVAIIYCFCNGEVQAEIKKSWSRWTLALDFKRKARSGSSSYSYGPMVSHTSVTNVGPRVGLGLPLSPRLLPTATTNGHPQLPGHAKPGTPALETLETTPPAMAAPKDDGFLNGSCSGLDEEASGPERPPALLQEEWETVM
Method: as §1, §2

[4] = Compound gel-forming ability in water (visual inspection, tube tapping assay, tilted tube assay); assay type: physicochemical;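 also: peptides mixed with de-ionized water at about 22-25 °C, judged after 20 min by eye plus tube tapping (10 taps, moves counted) and 90° tilt mobility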
[5] = tested on: bull frogs; test: Skin color change in bull frogs after intraperitoneal injection; assay type: in vivo; settings: 100 nmoles/kg body weight
[6] = target: T3, GnRH receptor (GnRHR or LHRHR) (Homo sapiens, UniProt P30968); test: GnRHR calcium flux assay (Discoverx), antagonistic; assay type: cell-based; settings: LHRH-stimulated
T3 sequence (P30968 1-328): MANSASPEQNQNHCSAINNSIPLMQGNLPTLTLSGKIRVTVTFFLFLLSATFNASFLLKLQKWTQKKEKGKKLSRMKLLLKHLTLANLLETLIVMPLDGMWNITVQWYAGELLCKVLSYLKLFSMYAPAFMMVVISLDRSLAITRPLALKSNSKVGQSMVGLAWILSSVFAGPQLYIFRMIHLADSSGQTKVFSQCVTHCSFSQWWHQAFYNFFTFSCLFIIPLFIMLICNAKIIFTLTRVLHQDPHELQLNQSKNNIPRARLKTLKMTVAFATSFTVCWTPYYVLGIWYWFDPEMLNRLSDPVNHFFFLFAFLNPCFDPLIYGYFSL
Text: To study the bioactivities of conjugated and mutated peptides, we employed in vitro receptor-activation assays with cultured cells expressing recombinant melanocortin receptor 1 (MC1R), melanocortin receptor 4 (MC4R), CRH receptor 2 (CRHR2), PTH receptor 1 (PTHR1), or kappa opioid receptor (OPRK1). The agonistic activities toward MC1R, MC4R, CRHR2, PTHR1, and OPRK1 were assyed with an MC1R cAMP assay, an MC4R cAMP assay, a CRHR2 cAMP assay, a PTHR1 cAMP assay and an OPRK1 cAMP assay from Discoverx Inc. (Fremont, Calif.), respectively. […]
For the analysis of calcium flux, cell lines were expanded from freezer stocks and seeded in a total volume of 20 μL into black-walled, clear-bottom, Poly-D-lysine coated 384-well microplates and incubated at 37 C for the appropriate time prior to testing. […] Compound agonist activity was measured on a FLIPR Tetra (MDS), and calcium mobilization was monitored for 2 minutes and 10 μL 4× sample in HBSS/20 mM Hepes was added to the cells 5 seconds into the assay.
For antagonist determination, cells were pre-incubated with sample followed by agonist challenge at the EC80 concentration. […] Compound antagonistic activity was measured on a FLIPR Tetra (MDS), and calcium mobilization was monitored for 2 minutes and 10 μL EC80 agonist in HBSS/20 mM Hepes was added to the cells 5 seconds into the assay. […]

CCCCCCCCCCCCCCCC(=O)N[C@@H](Cc1c[nH]cn1)C(=O)N[C@@H](CO)C(=O)N[C@@H](Cc1ccc(O)cc1)C(=O)N[C@@H](CCCNC(=N)N)C(=O)N[C@H]1CSSC[C@@H](C(N)=O)NC(=O)[C@H](Cc2c[nH]c3ccccc23)NC(=O)[C@H](CCCNC(=N)N)NC(=O)[C@@H](Cc2ccccc2)NC(=O)[C@H](Cc2c[nH]cn2)NC(=O)[C@@H](C)NC1=O [SEQ ID NO:228, Pal-HSYRC-(D-Ala)-H-(D-Phe)-RWC-NH2] (Palmitoyl-HSYRC[dA]H[dF]RWC-NH2; disulfide 5-11 (inferred))
EC50 [1]: 0.15 nM

Palmitoyl-SSPHSY[AEEA]IVLSLDVPIGLLQILLEQARARAAREQATTNARILARVGHC-NH2 [SEQ ID NO:230]
EC50 [2]: 0.5 nM

CCCCCCCCCCCCCCCC(=O)N[C@@H](Cc1c[nH]cn1)C(=O)N[C@@H](CO)C(=O)N[C@@H](Cc1ccc(O)cc1)C(=O)N[C@@H](CO)C(=O)N[C@@H](CCC(=O)O)C(=O)N[C@H](C(=O)N[C@@H](CCC(N)=O)C(=O)N[C@@H](CC(C)C)C(=O)N[C@@H](CCSC)C(=O)N[C@@H](Cc1c[nH]cn1)C(=O)N[C@@H](CC(N)=O)C(=O)N[C@@H](CC(C)C)C(=O)NCC(=O)N[C@@H](CCCCN)C(=O)N[C@@H](Cc1c[nH]cn1)C(=O)N[C@@H](CC(C)C)C(=O)N[C@@H](CC(N)=O)C(=O)N[C@@H](CO)C(=O)N[C@@H](CCSC)C(=O)N[C@@H](CCC(=O)O)C(=O)N[C@@H](CCCNC(=N)N)C(=O)N[C@H](C(=O)N[C@@H](CCC(=O)O)C(=O)N[C@@H](Cc1c[nH]c2ccccc12)C(=O)N[C@@H](CC(C)C)C(=O)N[C@@H](CCCNC(=N)N)C(=O)N[C@@H](CCCCN)C(=O)N[C@@H](CCCCN)C(=O)N[C@@H](CC(C)C)C(=O)N[C@@H](CCC(N)=O)C(=O)N[C@@H](CC(=O)O)C(=O)N[C@H](C(=O)N[C@@H](Cc1c[nH]cn1)C(=O)N[C@@H](CC(N)=O)C(=O)N[C@@H](Cc1ccccc1)C(=O)O)C(C)C)C(C)C)[C@@H](C)CC [SEQ ID NO:232] (Palmitoyl-HSYSEIQLMHNLGKHLNSMERVEWLRKKLQDVHNF-OH; C-terminus assumed)
EC50 [3]: 14.1 nM

CCCCCCCCCCCCCCCC(=O)N[C@@H](Cc1c[nH]cn1)C(=O)N[C@@H](CO)C(=O)N[C@@H](Cc1ccc(O)cc1)C(=O)N[C@H](Cc1ccc2ccccc2c1)C(=O)N[C@H](Cc1ccc(Cl)cc1)C(=O)N[C@H](Cc1cccnc1)C(=O)N[C@@H](CO)C(=O)N[C@@H](Cc1ccc(O)cc1)C(=O)N[C@H](CCCNC(N)=O)C(=O)N[C@@H](CC(C)C)C(=O)N[C@@H](CCCNC(=N)N)C(=O)N1CCC[C@H]1C(=O)N[C@H](C)C(N)=O [SEQ ID NO:203, Pal-HSY-(D-Nal)-(D-Cpa)-(D-Pal)-SY-(D-Cit)-LRP-(D-Ala)-NH2] (Palmitoyl-HSY[d2Nal][dPhe(4-Cl)][d3Pal]SY[dCit]LRP[dA]-NH2)
gel formation at 6% w/w ([4]; 6% w/w in water): semisolid gel | gel formation at 11% w/w ([4]; 11% w/w in water): semisolid gel | gel formation in aqueous solution, 6% ([4]; Table 3, 6% w/w): SS (SS for semisolid gel) | gel formation in aqueous solution, 11% ([4]; Table 3, 11% w/w): SS (SS for semisolid gel)

CCCCCCCCCCCCCCCC(=O)N[C@@H](Cc1c[nH]cn1)C(=O)N[C@@H](CO)C(=O)N[C@@H](Cc1ccc(O)cc1)C(=O)N[C@@H](CO)C(=O)N[C@@H](CCCC)C(=O)N[C@@H](CCC(=O)O)C(=O)N[C@@H](Cc1c[nH]cn1)C(=O)N[C@H](Cc1ccccc1)C(=O)N[C@@H](CCCNC(=N)N)C(=O)N[C@@H](Cc1c[nH]c2ccccc12)C(=O)NCC(=O)N[C@@H](CCCCN)C(=O)N1CCC[C@H]1C(=O)N[C@H](C(N)=O)C(C)C [SEQ ID NO:224, Pal-HSYS-Nle-EH-(D-Phe)-RWGKPV-NH2]
skin color at 4 or 14 days after injection [5]: retained the dark skin color; also recorded: lasting color change | time for skin color change from green to black [5]: ≤ 2 h | gel formation in aqueous solution, 11% ([4]; Table 3, 11% w/w): SS (SS for semisolid gel) | propensity to form gels, chimeric or mutated polypeptides, 11% ([4]; Table 5, 11% w/w): SS (An ability to form semisolid gel is represented by an SS)

CCCCCCCCCCCCCCCC(=O)N[C@@H](CCCCN)C(=O)N[C@H](C(=O)N[C@@H](CCC(N)=O)C(=O)N[C@@H](CCCCN)C(=O)N[C@@H](CC(C)C)C(=O)N[C@@H](CO)C(=O)N[C@@H](C)C(=O)N1CCC[C@H]1C(=O)N[C@H](C(=O)N[C@@H](CC(=O)O)C(=O)N1CCC[C@H]1C(=O)N[C@@H](CO)C(=O)N[C@@H](CO)C(=O)N1CCC[C@H]1C(=O)N[C@@H](Cc1c[nH]cn1)C(=O)N[C@@H](CO)C(=O)N[C@@H](Cc1ccc(O)cc1)C(=O)NCCOCCOCC(=O)N[C@H](Cc1ccc2ccccc2c1)C(=O)N[C@H](Cc1ccc(Cl)cc1)C(=O)N[C@H](Cc1cccnc1)C(=O)N[C@@H](CO)C(=O)N[C@@H](Cc1ccc(O)cc1)C(=O)N[C@H](CCCNC(N)=O)C(=O)N[C@@H](CC(C)C)C(=O)N[C@@H](CCCNC(=N)N)C(=O)N1CCC[C@H]1C(=O)N[C@H](C)C(N)=O)C(C)C)C(C)C [SEQ ID NO:202]
IC50 [6]: < 0.51 nM
